# Laboratory results: patent US5434135A, “Growth factor compositions, preparation and use” (Parikh; Indu, priority 1993, dated 1995)
# Not every detail of the peptide structures is certain; ends, links or a residue may be inferred.
# Tests used:
# [1] = tested on: indomethacin-induced gastric lesions; assay: indomethacin-induced gastric lesions in the rat, oral treatment; assay type: in vivo; settings: read after 12 hours
# [2] = tested on: normal rat kidney fibroblasts (NRK-49F); assay: mitogenic stimulation by tritiated thymidine uptake, NRK-49F; assay type: cell-based; settings: NRK-49F rat cell line
smiles,measurement,setting,value
CC[C@H](C)[C@@H]1NC(=O)[C@H](Cc2ccc(O)cc2)NC(=O)CNC(=O)[C@H](C(C)C)NC(=O)[C@H](C(C)C)NC(=O)[C@@H](NC(=O)[C@H](CC(N)=O)NC(=O)[C@@H]2CSSC[C@@H]3NC(=O)[C@H](Cc4ccc(O)cc4)NC(=O)CNC(=O)[C@H](CC(=O)O)NC(=O)[C@H](Cc4c[nH]cn4)NC(=O)[C@H](CO)NC(=O)[C@H](CC(C)C)NC(=O)[C@@H]4CCCN4C(=O)[C@@H](NC(=O)[C@H](CCC(=O)O)NC(=O)[C@H](CO)NC(=O)[C@H](CC(=O)O)NC(=O)[C@H](CO)NC(=O)[C@@H](N)CC(N)=O)CSSC[C@H](NC(=O)[C@H](C(C)C)NC(=O)CNC(=O)[C@H](CC(=O)O)NC(=O)[C@H](Cc4c[nH]cn4)NC(=O)[C@H](CC(C)C)NC3=O)C(=O)N[C@@H](CCSC)C(=O)N[C@@H](Cc3ccc(O)cc3)C(=O)N[C@@H]([C@@H](C)CC)C(=O)N[C@@H](CCC(=O)O)C(=O)N[C@@H](C)C(=O)N[C@@H](CC(C)C)C(=O)N[C@@H](CC(=O)O)C(=O)N[C@@H](CCCCN)C(=O)N[C@@H](Cc3ccc(O)cc3)C(=O)N[C@@H](C)C(=O)N2)CSSC[C@@H](C(=O)N[C@@H](CCC(N)=O)C(=O)N[C@@H](Cc2ccc(O)cc2)C(=O)N[C@@H](CCCNC(=N)N)C(=O)N[C@@H](CC(=O)O)C(=O)N[C@@H](CC(C)C)C(=O)N[C@@H](CCCCN)C(=O)N[C@@H](Cc2c[nH]c3ccccc23)C(=O)N[C@@H](Cc2c[nH]c3ccccc23)C(=O)N[C@@H](CCC(=O)O)C(=O)N[C@@H](CC(C)C)C(=O)N[C@@H](CCCNC(=N)N)C(=O)O)NC(=O)[C@H](CCCNC(=N)N)NC(=O)[C@H](CCC(=O)O)NC(=O)CNC1=O [hEGF1-53],reduction in lesion size at higher dosage,[1]; oral doses higher than 1.0 nanomoles per Kg,without reduction
same,reduction in lesion size,"[1]; zero time oral dose of 1.0 nanomoles per Kg, not statistically different from controls",16%
same,concentration at which maximal mitogenic stimulation is reached,[2],about 10^-11 M
same,concentration up to which maximal stimulation remains unchanged,[2],about 10^-8 M
